Assay results: article doi:10.1101/768242
These are yes or no findings as the source states them, for the method shown. Some entries that bind do so weakly or less than the wild type.

The chains behind the UniProt entries cited, without tags or fusion partners. Residues count along the entry.
UniProt P35222: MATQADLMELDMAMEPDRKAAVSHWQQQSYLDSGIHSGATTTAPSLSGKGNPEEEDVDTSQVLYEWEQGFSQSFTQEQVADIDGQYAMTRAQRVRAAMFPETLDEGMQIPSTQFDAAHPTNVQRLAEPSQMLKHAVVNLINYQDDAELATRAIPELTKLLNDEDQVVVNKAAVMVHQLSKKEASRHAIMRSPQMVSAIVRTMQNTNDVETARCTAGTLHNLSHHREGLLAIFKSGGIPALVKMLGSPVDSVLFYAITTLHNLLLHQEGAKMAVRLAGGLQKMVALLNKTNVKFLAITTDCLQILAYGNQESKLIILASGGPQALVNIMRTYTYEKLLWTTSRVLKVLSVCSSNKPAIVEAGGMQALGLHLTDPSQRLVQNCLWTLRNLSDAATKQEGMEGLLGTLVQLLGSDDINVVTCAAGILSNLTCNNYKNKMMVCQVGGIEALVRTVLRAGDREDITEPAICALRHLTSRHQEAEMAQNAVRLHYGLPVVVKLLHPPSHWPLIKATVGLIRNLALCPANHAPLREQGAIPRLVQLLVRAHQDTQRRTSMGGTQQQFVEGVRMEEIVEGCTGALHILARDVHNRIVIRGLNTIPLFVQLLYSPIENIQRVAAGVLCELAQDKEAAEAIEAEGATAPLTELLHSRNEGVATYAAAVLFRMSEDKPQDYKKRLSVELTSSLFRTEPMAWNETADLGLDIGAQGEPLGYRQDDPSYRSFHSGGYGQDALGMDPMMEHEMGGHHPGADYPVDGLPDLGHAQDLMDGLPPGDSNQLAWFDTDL
UniProt O15169, residues 384-518: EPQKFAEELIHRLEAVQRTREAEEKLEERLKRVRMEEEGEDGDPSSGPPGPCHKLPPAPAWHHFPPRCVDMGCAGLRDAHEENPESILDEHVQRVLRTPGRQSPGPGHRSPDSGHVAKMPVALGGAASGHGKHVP

Target: unprimed β-catenin (human) (UniProt P35222)
Assay: BLI

Axin_(384-518) (miniAxin) (from UniProt O15169-2 384-518) (domain or fragment)
binding: binds
